Data: PubChem BioAssay AID493014 (National Center for Advancing Translational Sciences (NCATS), 2011)
This is one part of the list. Further columns of the screen follow, without active or inactive calls. The list favours compounds with an active or inconclusive main result. Potencies come from curve fits of mixed quality, noted in brackets.

Assay: qHTS Assay to Find Inhibitors of Chronic Active B-Cell Receptor Signaling
Conditions: ABC-DLBCL IkBa-CBG/CBR reporter, luminescence ratio (green luciferase fused to IkBa over red control in TMD8 lymphoma cells), 4 h
Method in brief: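 Doxycycline induced both beetle luciferases in TMD8 lymphoma cells; IKK-driven degradation limits the IkappaBalpha-fused green signal, while red luminescence normalises for cell number and nonspecific effects. Compounds tested up to 46 uM, 4 hrs.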

[1] = measured here: CBR red luminescence, cell number
[2] = measured here: IkBa-CBG green luminescence

Row | Compound | AC50 [1] | AC50 [2]
1 | CCN1C(=O)[C@H]2[C@@H](c3ccc(-c4ccc(Cl)c(Cl)c4)cc3)N[C@@](CC(C)C)(C(=O)OC)[C@H]2C1=O | 18.4 µM [falling, partial curve, poor fit] | 
2 | CSc1ccc(NC(=O)Nc2cc(C)ccn2)cc1 | 0.1 µM [rising, full curve, poor fit] | 
3 | Cc1cnc(NC(=O)CCCNC(=O)c2ccc(Cl)cc2)s1 | 23.1 µM [rising, single point] | 
4 | CCN(CC)c1ccc(NC(=O)c2[nH]c(C)c(C(C)=O)c2C)c(C)c1 | 0.146 µM [rising, full curve, poor fit] | 
5 | O=C(O)c1ccc2c3n(nc2c1)-c1ccc(Cl)cc1CO3 | 0.631 µM [falling, full curve, poor fit] | 
6 | O=C(Nc1ccc(Cl)cc1)[C@@H]1[C@@H]2C(=O)N(c3ccc4ccccc4c3)C(=O)[C@@H]2[C@H]2C=CC=NN21 | 1.3 µM [falling, full curve, poor fit] | 
7 | CSc1ccc(Cl)c(C(=O)Nc2ccc(OCC(N)=O)cc2)c1 | 35.5 µM [falling, single point] | 
8 | CN1CCC(C2(O)c3ccccc3CSc3sccc32)CC1 (stereo unspecified) | 29.1 µM [falling, single point] | 
9 | CCOC(=O)N1CCN(C(=O)COC(=O)C2CCN(S(=O)(=O)c3c(Cl)cccc3Cl)CC2)CC1 | 10.3 µM [rising, partial curve, poor fit] | 
10 | CCOC(=O)c1ccc(S(=O)(=O)NNc2ccc(C(F)(F)F)cn2)cc1 | 25.9 µM [falling, single point] | 
11 | O=C(NCc1ccco1)NC(=O)c1csc([N+](=O)[O-])c1 | 20 µM [rising, single point] | 
12 | Cc1nn(-c2ccccn2)c2c1C(c1ccncc1)C1=C(CC(C)(C)CC1=O)N2 (stereo unspecified) | 20.6 µM [rising, partial curve] | 
13 | Cc1cc2ncc(-c3ncc(C(F)(F)F)cc3Cl)cn2n1 | 7.31 µM [rising, partial curve, poor fit] | 
14 | O=C(C1=C[C@@H](c2coc3ccccc3c2=O)C[C@@H](OCCCCO)O1)N1CCOCC1 | 6.31 µM [falling, single point] | 
15 | CCCC(=O)O[C@]1(C(=O)COC(C)=O)CC[C@H]2[C@@H]3C[C@H](F)C4=CC(=O)C=C[C@]4(C)[C@@]3(F)[C@@H](O)C[C@@]21C | 8.91 µM [falling, partial curve] | 
16 | Cc1sc(NC(=S)NC(=O)CCc2ccccc2)c(C(N)=O)c1C | 0.366 µM [rising, full curve] | 0.326 µM [falling, full curve]
17 | CNC(=O)c1c(NC(=O)CS(=O)(=O)c2ccccc2)sc(C)c1C | 29.1 µM [falling, partial curve, poor fit] | 
18 | CCSC(=O)N(CC)CC(=O)Nc1c(CC)cccc1CC | 32.6 µM [rising, single point] | 
19 | CCc1ccc(Nc2n[n+](-c3ccccc3)c(-c3cccc(C)c3)s2)cc1 | 29.1 µM [falling, single point] | 

Row | Compound | AC50 [1] | AC50 [2]
20 | COc1ccc(C(=O)C2CCCN(S(=O)(=O)C(C)C)C2)c(C)c1 (stereo unspecified) | 2.51 µM [rising, full curve, poor fit] | 
21 | CCC(c1nnnn1Cc1ccc(F)cc1)N(CCCO)Cc1cc2cc3c(cc2[nH]c1=O)OCO3 (stereo unspecified) | 20 µM [falling, single point] | 
22 | C/C(CCc1oc2ccc(Br)cc2c1-c1ccc(C)o1)=N/O | 29.1 µM [falling, single point] | 
23 | O=C(COC(=O)c1ccccc1-c1nc2ccccc2s1)Nc1ccccc1C(F)(F)F | 6.51 µM [rising, single point] | 
24 | C/C(=N\NS(=O)(=O)c1ccc(Br)cc1)c1ccc(-n2ccnc2)cc1 | 1.46 µM [rising, partial curve, poor fit] | 
25 | Cc1ccc2sc(N(CCCN(C)C)C(=O)CCS(=O)(=O)c3ccccc3)nc2c1C | 8.91 µM [falling, partial curve, poor fit] | 
26 | CC(=O)Nc1ccc(C(=O)OCC(=O)NCc2cccs2)cc1 | 20.6 µM [rising, partial curve] | 
27 | CC(NC(=O)c1ccccc1Cl)C1COc2ccccc2O1 (stereo unspecified) | 0.731 µM [rising, partial curve, poor fit] | 
28 | CCc1ccc(N2CC(C(=O)Nc3cc(C)on3)CC2=O)cc1 (stereo unspecified) | 6.31 µM [rising, single point] | 
29 | O=C(Nc1ccc(Cn2cccn2)cc1)c1ccc(COc2cccc(Br)c2)cc1 | 4.61 µM [rising, single point] | 
30 | CCN1C(=O)c2cccc3c(NS(=O)(=O)c4ccc(NC(C)=O)cc4)ccc1c23 | 17.8 µM [rising, partial curve, poor fit] | 
31 | O=C(Nc1cccc(-c2csc(Nc3cccc(C(F)(F)F)c3)n2)c1)c1ccccc1 | 35.5 µM [falling, single point] | 20 µM [rising, single point]
32 | O=[N+]([O-])c1ccc(CS(=O)(=O)c2ccc(Cl)cc2)cc1 | 3.55 µM [rising, single point] | 
33 | Cc1ccsc1/C=C/c1ccc2ccccc2n1 | 0.794 µM [rising, full curve, poor fit] | 
34 | CCN(CC)c1ccc2c(c1)OC(N)=C(C#N)C2c1cccnc1 (stereo unspecified) | 1 µM [rising, full curve] | 0.891 µM [falling, full curve]
35 | O=C(CCNc1ccccc1)c1cccc([N+](=O)[O-])c1 | 3.55 µM [rising, full curve, poor fit] | 
36 | Cc1ccc(NC(=O)N2CCC(c3nc4c(nnn4Cc4c(F)cccc4Cl)c(=O)[nH]3)CC2)cc1 | 13 µM [falling, partial curve] | 
37 | COCCN1C=C(C(=O)OC)C(c2cc(Br)c(OC)c(OC)c2)C(C(=O)OC)=C1 | 0.0731 µM [falling, full curve, poor fit] | 
38 | Cc1ccccc1NS(=O)(=O)c1cc(C(=O)Nc2cccc([N+](=O)[O-])c2)ccc1C | 18.4 µM [falling, single point] | 

Retrieved one by one from the entries so far:
Row | Compound | AC50 [1] | AC50 [2]
19 | CCc1ccc(Nc2n[n+](-c3ccccc3)c(-c3cccc(C)c3)s2)cc1 | 29.1 µM [falling, single point] | 
12 | Cc1nn(-c2ccccn2)c2c1C(c1ccncc1)C1=C(CC(C)(C)CC1=O)N2 (stereo unspecified) | 20.6 µM [rising, partial curve] | 
7 | CSc1ccc(Cl)c(C(=O)Nc2ccc(OCC(N)=O)cc2)c1 | 35.5 µM [falling, single point] | 
